# Test results reported in PMC10944510.
# Protein sequences, listed by entry. Tags and fused reporters are not part of them.
# UniProt Q5TZA2: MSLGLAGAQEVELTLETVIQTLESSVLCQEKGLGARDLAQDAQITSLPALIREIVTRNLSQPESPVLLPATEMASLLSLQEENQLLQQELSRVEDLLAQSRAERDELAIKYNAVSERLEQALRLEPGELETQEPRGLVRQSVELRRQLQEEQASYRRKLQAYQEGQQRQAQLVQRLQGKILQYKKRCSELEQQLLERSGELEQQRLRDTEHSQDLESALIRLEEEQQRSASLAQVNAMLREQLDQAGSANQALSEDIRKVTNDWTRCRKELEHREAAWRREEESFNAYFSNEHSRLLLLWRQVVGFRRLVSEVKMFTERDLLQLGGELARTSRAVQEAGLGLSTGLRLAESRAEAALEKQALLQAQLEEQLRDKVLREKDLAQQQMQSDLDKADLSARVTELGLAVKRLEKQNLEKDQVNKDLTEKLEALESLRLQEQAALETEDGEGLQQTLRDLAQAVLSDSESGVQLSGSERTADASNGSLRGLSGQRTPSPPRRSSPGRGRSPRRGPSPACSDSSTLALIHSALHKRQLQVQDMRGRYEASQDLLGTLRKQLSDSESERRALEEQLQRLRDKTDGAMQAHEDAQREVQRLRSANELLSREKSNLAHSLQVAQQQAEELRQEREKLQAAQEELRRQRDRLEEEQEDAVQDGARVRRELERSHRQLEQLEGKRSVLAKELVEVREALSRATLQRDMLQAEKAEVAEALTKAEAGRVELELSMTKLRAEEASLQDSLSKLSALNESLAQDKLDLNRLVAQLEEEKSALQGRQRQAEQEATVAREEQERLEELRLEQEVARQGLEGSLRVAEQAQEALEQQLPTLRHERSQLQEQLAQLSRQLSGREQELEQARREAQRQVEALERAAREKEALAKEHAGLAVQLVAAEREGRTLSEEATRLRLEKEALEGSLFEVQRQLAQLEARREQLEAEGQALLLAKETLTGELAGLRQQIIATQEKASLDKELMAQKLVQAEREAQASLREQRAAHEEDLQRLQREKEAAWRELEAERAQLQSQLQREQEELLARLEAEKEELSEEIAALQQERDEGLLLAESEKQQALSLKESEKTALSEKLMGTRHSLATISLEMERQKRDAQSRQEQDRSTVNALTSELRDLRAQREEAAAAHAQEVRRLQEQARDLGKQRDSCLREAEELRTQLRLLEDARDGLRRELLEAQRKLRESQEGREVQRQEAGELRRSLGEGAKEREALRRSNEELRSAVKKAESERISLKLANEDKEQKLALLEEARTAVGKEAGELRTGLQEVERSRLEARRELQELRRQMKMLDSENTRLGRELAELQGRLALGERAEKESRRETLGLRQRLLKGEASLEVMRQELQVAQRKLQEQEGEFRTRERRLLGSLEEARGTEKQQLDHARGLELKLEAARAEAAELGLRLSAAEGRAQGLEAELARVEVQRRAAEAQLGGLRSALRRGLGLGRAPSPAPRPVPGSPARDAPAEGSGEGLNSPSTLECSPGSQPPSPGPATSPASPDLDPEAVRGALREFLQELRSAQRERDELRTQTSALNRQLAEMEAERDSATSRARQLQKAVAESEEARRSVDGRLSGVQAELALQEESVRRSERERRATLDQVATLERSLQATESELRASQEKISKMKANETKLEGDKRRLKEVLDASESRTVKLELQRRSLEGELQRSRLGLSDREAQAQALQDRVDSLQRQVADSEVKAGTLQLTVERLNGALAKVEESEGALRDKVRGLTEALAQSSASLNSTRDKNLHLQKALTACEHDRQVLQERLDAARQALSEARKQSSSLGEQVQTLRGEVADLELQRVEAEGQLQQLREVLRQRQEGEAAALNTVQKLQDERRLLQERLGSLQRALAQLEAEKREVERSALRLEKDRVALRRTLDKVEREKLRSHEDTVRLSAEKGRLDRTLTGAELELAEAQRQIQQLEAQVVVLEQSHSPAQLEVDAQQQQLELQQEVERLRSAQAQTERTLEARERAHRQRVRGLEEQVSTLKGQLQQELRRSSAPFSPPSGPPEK
# T1: FLAG-TurboID-Nek2A (UniProt P51955)
# T1 sequence: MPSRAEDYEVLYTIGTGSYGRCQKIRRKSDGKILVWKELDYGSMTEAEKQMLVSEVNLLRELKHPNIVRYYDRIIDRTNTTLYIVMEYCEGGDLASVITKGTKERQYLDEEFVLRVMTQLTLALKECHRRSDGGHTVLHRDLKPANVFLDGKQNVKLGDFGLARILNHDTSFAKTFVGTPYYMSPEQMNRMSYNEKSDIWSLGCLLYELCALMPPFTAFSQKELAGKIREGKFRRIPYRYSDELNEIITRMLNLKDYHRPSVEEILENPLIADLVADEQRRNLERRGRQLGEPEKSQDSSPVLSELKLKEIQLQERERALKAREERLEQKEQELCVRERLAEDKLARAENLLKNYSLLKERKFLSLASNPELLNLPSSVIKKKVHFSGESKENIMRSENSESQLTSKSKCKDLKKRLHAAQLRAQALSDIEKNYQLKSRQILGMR
# Target: T1, FLAG-TurboID-Nek2A
# Assay: proximity labelling; FLAG-TurboID-Nek2A (WT or K37R) expressed in cells; after biotinylation lysates incubated overnight with streptavidin beads at 4 °C, on-bead trypsin digestion, mass spectrometry (Q Exactive HF; MaxQuant LFQ)
row,binding,Molecule
1,binds,Rootletin (CROCC) (from UniProt Q5TZA2 1-2017)
2,binds,"KIF2C (protein, UniProt Q99661 1-725) MAMDSSLQARLFPGLAIKIQRSNGLIHSANVRTVNLEKSCVSVEWAEGGATKGKEIDFDDVAAINPELLQLLPLHPKDNLPLQENVTIQKQKRRSVNSKIPAPKESLRSRSTRMSTVSELRITAQENDMEVELPAAANSRKQFSVPPAPTRPSCPAVAEIPLRMVSEEMEEQVHSIRGSSSANPVNSVRRKSCLVKEVEKMKNKREEKKAQNSEMRMKRAQEYDSSFPNWEFARMIKEFRATLECHPLTMTDPIEEHRICVCVRKRPLNKQELAKKEIDVISIPSKCLLLVHEPKLKVDLTKYLENQAFCFDFAFDETASNEVVYRFTARPLVQTIFEGGKATCFAYGQTGSGKTHTMGGDLSGKAQNASKGIYAMASRDVFLLKNQPCYRKLGLEVYVTFFEIYNGKLFDLLNKKAKLRVLEDGKQQVQVVGLQEHLVNSADDVIKMIDMGSACRTSGQTFANSNSSRSHACFQIILRAKGRMHGKFSLVDLAGNERGADTSSADRQTRMEGAEINKSLLALKECIRALGQNKAHTPFRESKLTQVLRDSFIGENSRTCMIATISPGISSCEYTLNTLRYADRVKELSPHSGPSGEQLIQMETEEMEACSNGALIPGNLSKEEEELSSQMSSFNEAMTQIRELEEKAMEELKEIIQQGPDWLELSEMTEQPDYDLETFVNKAESALAQQAKHFSALRDVIKALRLAMQLEEQASRQISSKKRPQ"
3,binds,"LRRC45 (protein, UniProt Q96CN5 1-670) MEEFRRSYSRLCRESGAEPQEAVLQQLHQLPRGRLDLATQSLTVETCRALGKLLPRETLCTELVLSDCMLSEEGATLLLRGLCANTVLRFLDLKGNNLRAAGAEALGKLLQQNKSIQSLTLEWNSLGTWDDAFATFCGGLAANGALQRLDLRNNQISHKGAEELALALKGNTTLQQLDLRWNNVGLLGGRALMNCLPSNRTLWRLDLAGNNIPGDVLRAVEQAMGHSQDRLTTFQENQARTHVLSKEVQHLREEKSKQFLDLMETIDKQREEMAKSSRASAARVGQLQEALNERHSIINALKAKLQMTEAALALSEQKAQDLGELLATAEQEQLSLSQRQAKELKLEQQEAAERESKLLRDLSAANEKNLLLQNQVDELERKFRCQQEQLFQTRQEMTSMSAELKMRAIQAEERLDMEKRRCRQSLEDSESLRIKEVEHMTRHLEESEKAMQERVQRLEAARLSLEEELSRVKAAALSERGQAEEELIKAKSQARLEEQQRLAHLEDKLRLLAQARDEAQGACLQQKQVVAEAQTRVSQLGLQVEGLRRRLEELQQELSLKDQERVAEVSRVRVELQEQNGRLQAELAAQEALREKAAALERQLKVMASDHREALLDRESENASLREKLRLREAEIARIRDEEAQRASFLQNAVLAYVQASPVRTLSPPK"

# No constants are given. Whether binding was seen depends on the method and setting. In cells and extracts the contact can be indirect. A yes stands for co-enrichment or nearness to the bait. Other partners may have been found. Sequences can lack the tags named with a protein.
